According to patent US5486515A, “2-fluoroalkyl-1,4-benzoxaxines as potassium channel mediators” (Zeneca Limited, priority 1993, dated 1996):

Experiments:
[1] = system: bladder detrusor smooth muscle; assay: first in vitro test: relaxation of guinea pig bladder detrusor strips contracted with 15 mM KCl; format: cell-based, Male albino Hartley guinea pigs; settings: calcium channel blockers
Method: Male albino Hartley guinea pigs (450-500 g) are sacrificed by carbon dioxide induced asphyxiation and quickly exsanguinated. The lower abdominal cavity is opened and the urinary bladder isolated. […] The solution is warmed to 37° C. and gassed with 95% O2 and 5% CO2. With vigorous bubbling, the solution should have a pH value close to 7.4.
The dome of the washed bladder is cut off and discarded; the remaining bladder is placed on a gauze in a Petri dish containing the buffer solution. A mid-ventral longitudinal cut is made with scissors to open the bladder. The strips cut from the dome and the base edge are discarded. The remaining detrusor mid-section is cut into two horizontal strips with an approximate width of 2.0 mm. These two strips are further bisected at the mid-dorsal section, creating four strip of similar dimensions. Each strip thus contains both dorsal and ventral portions of the bladder.
The two ends of each individual strip are tied to a glass support rod and a force-displacement transducer (Grass model FR03), respectively, with 4-0 black braided silk suture. […]
When the tissue relaxes to a steady state after the final washing, 15 mM KCl is again applied. […] The effect of the compound at each dose is expressed as % of the maximum inhibitory response, which is further normalized with respect to the corresponding effect of the compound vehicle control. […]

[2] = system: detrusor smooth muscle; assay: second in vitro test: relaxation of guinea pig detrusor strips contracted with 80 mM KCl; format: cell-based; settings: 80 mM KCl vs 15 mM KCl
Method: This second in vitro test is similar to the one described above with regard to tissue preparation and data acquisition. However, the following exceptions are noted. In this second test, the contraction of the detrusor strips during priming and after the equilibration period is achieved with 80 mM instead of 15 mM KCl (total concentration in the bath).

## COC(=O)C1=C(C)NC(C)=C(C(=O)OC)C1c1ccccc1[N+](=O)[O-] [nifedipine]
[1]
  relaxation and reduction of the myogenic activity of guinea pig detrusor strips: able to relax and reduce the myogenic activity
[2]
  potency in the second test relative to the first test: more potent in the second test
